Construct, isoform or probe ends are uncertain for at least one entry.
target: GST fusion protein (GST N-terminal fusion partner with unspecified protein of interest) (Schistosoma japonicum) (UniProt P08515); assay: SELEX; conditions: purified recombinant protein

Chains of the proteins cited; added tags and fusions are not shown. Residues count along the entry.
UniProt P08515, 2-218: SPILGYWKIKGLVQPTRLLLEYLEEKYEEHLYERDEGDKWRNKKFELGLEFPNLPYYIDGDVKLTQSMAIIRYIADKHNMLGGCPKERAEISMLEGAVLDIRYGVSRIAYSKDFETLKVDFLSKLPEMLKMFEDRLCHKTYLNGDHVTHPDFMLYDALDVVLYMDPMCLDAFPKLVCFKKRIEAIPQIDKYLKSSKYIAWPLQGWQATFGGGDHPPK

Row | Sequence | selection result
1 | GGUAGAUACGAUGGACUAACUGCGCAAAUUACUCGUAUUAGCCGACAUGACGCGCAGCCAA [No. 5 clone RNA aptamer (sequence II)] | selected
2 | GGUAGAUACGAUGGAUACCGAAAAAUUAGUGUCGUUGACUGCAACAUGACGCGCAGCCAA [No. 26 clone RNA aptamer (sequence III)] | selected
3 | GGUAGAUACGAUGGAUGGUUGUGUAAAGGUGGUCGUAUCCGCCGACAUGACGCGCAGCCAA [No. 3 clone RNA aptamer (sequence I)] | selected

— patent publication US20100036106
